Test results reported in publication PMC12040169 (PLOS Biology, 2025).
The other results are listed elsewhere or left out.

System: T1, CTL2-GFP (C. trachomatis L2/434/Bu, GFP-expressing)
T1 construct: L2/434/Bu, GFP-expressing
Design: species or system HeLa; Intracellular C. trachomatis growth in HeLa cells, bulk GFP fluorescence relative to DMSO
Conditions: bulk GFP, single well; 28.5 h, 10 µM; inhibitor

| SMILES | % of control remaining [%] |
| --- | --- |
| OCc1cc(N2CCOC3(CCCOC3)C2)ncc1F (stereo not shown) [CBK304774] | 137.056 |
| CCCn1ccnc1SCC(=O)Nc1ccc(CN2CCOCC2)cc1 [CBK306068] | 112.001 |
| FC(F)c1cc(-c2ccccc2)n2ncnc2n1 [CBK025714] | 100 |
| COc1ccc(S(=O)(=O)N(C)CC(=O)Nc2ccc(C(N)=O)cc2)cc1Cl [CBK267891] | 113.705 |
| CCN(CC)CCNC(=O)c1c(O)c2ccccc2n(Cc2ccccc2)c1=O [CBK291199] | 76.4912 |
| O=C(CN1C(=O)c2ccccc2C1=O)OCC(=O)N1c2ccccc2Sc2ccccc21 [CBK264701] | 117.379 |
| COC(=O)c1ccccc1NC(=O)COc1ccc(Cl)c2cccnc12 [CBK266037] | 202.482 |
| CN(C)CCNc1nc(-c2cccc3ncccc23)cnc1N [CBK063693] | 239.065 |
| Cc1ccc(N2C(=O)c3ccccc3C2Nc2ccccc2)nc1 (stereo not shown) [CBK113238] | 102.707 |
| Cc1ccc(Nc2nc(N)nc(CN3CCN(Cc4ccc5c(c4)OCO5)CC3)n2)cc1 [CBK268985] | 133.527 |
| CC[n+]1c(C(C)(C)C)csc1NCC1CC1 [CBK011154B] | 80.1402 |
| O=C(NCCN1CCOCC1)C1CCN(C(=O)c2cccc(F)c2)CC1 [CBK304627] | 137.631 |
| CC(=O)Nc1cccc(NC(=O)c2cnc3sc(C)cn3c2=O)c1 [CBK287715] | 96.7548 |
| O=C(c1ccc2[nH]nnc2c1)N1CCc2ccccc2C1 [CBK200332] | 82.6141 |
| CN(C(=O)N1CCC(C(=O)NC(c2ccccc2)c2ccco2)CC1)c1ccccc1 (stereo not shown) [CBK059877] | 88.2682 |
| COc1cccc(C(=O)N2CCC(Cc3ccc(-c4cccc(C)c4)cc3)(C(N)=O)CC2)c1 [CBK285779] | 29.3746 |
| Cn1c(=O)[nH]c(=O)c2c1nc(N1CCN(Cc3ccccc3)CC1)n2CCCc1ccccc1 [CBK269529] | 121 |
| CCOC(=O)CCNC(=O)C1(c2ccc(OC)cc2)CC1 [CBK161490] | 115.112 |
| O=C(Nc1ccc(S(=O)(=O)N2CCCCC2)cc1)c1nc(SCc2ccccc2)ncc1Cl [CBK268901] | 100.728 |
| Cc1noc(C2COCCN2C(=O)c2cc(Cl)cn2C)n1 (stereo not shown) [CBK305120] | 106.578 |
| O=C1CCCC[C@@H]2[C@@H](N1)[C@H](c1ccccc1)CN2Cc1ccc2ccccc2n1 [CBK286281] | 105.528 |
| O=C(O)Cn1nnc(-c2ccc(OCc3ccccc3)cc2)n1 [CBK269755] | 132.369 |

Of the compounds above, 2 have an NH in an aromatic ring.

| SMILES | % of control remaining [%] |
| --- | --- |
| O=C(c1ccc2[nH]nnc2c1)N1CCc2ccccc2C1 [CBK200332] | 82.6141 |
| Cn1c(=O)[nH]c(=O)c2c1nc(N1CCN(Cc3ccccc3)CC1)n2CCCc1ccccc1 [CBK269529] | 121 |
